From PubChem BioAssay AID1347076 (National Center for Advancing Translational Sciences (NCATS), 2019)
The campaign covered roughly 400,000 compounds. About 13,000 (3.2%) were called active. This list was built around the results that the source calls inconclusive (neither active nor inactive); the mix of calls is not that of the screen. The call rests on the fitted dose curve; in most records, active means well fitted cell-killing curve with a large enough effect; inconclusive means small, poorly fitted or top-dose-only effect, or effect the other way; inactive means flat fitted curve, though single readings scatter. Potencies beside an inconclusive call are fits to weak or partial responses and may not hold up.

Assay: qHTS assay for MDR1-selective chemotherapeutics: Primary screen using the drug-selected MDR subline cells KB-V1; further: nearly all actives have a fitted effect of over 60% in size
Details: KB-V1 MDR cells viability, CellTiter-Glo, 72 h; activity change, negative = cytotoxicity: at 46.1 µM (top of the series)
Procedure, shortened: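 Readout: CellTiter-Glo luminescence, 10 min after addition. Cells: KB-V1 MDR subline, 72 h at 37 degrees C with compound. Analysis: corrected, normalized data fitted to concentration-effect curves.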
On the % scale 0 is the no-effect control and ±100 the full control effect; potency means the concentration at half of the fitted maximal effect.

Structure (SMILES) | Potency | activity change, negative = cytotoxicity
O=[N+]([O-])c1nn(-c2ccc3c(c2)OCCO3)n(O)c1=NC1CCCCCC1 | active: 16.4 µM | –
CCCCCCCC(=O)Nc1cc(C(=O)NCc2ccc(C)cc2)ccc1N1CCC2(CC1)CC(c1ccccc1)=NO2 | inactive | –
Cc1ccc(NC(=O)c2ccc(OC(F)(F)F)cc2)cc1S(=O)(=O)N(C)C | inconclusive: 5.17 µM [cytotoxic, full curve] | –
Cn1cccc1C(C(=O)NC1CCCCC1)N(C(=O)Cc1cccs1)c1ccc2c(c1)OCO2 (stereo not given) | inconclusive: 3.66 µM [cytotoxic, full curve] | –
C[C@H]1CN([C@@H](C)CO)S(=O)(=O)c2ccc(C#Cc3cccnc3)cc2O[C@@H]1CN(C)C(=O)Nc1ccc2c(c1)OCO2 | inactive | –
Cc1c(C(=O)NCc2cccc(C(F)(F)F)c2)sc(=O)n1Cc1ccc(C(=O)N(C)C)cc1 | inconclusive: 23.1 µM [cytotoxic, single point] | –
Cc1ccc(C(=O)NCC(=O)Nc2cccc(C(F)(F)F)c2)cc1 | inconclusive: 29.1 µM [cytotoxic, single point] | –
Cc1cccc(NC(=O)/C=C/c2ccc([N+](=O)[O-])s2)c1 | active: 4.61 µM | –
COc1ccc(CN(C)C(C)C(=O)NC2CCCc3ccccc32)cc1 (stereo not given) | inconclusive: 18.4 µM [cytotoxic, single point] | –
O=C1CSC(=S)N1/N=C/c1ccc(C(F)(F)F)cc1 | inconclusive: 18.4 µM [rising, single point] | –
COc1cc(C(=O)OCC(=O)NC2CCCC2)cc(NC(=O)c2ccco2)c1OC | active: 4.61 µM | –
Cc1ccccc1OCC(=O)Nc1sc(C(=O)Nc2cccc(C)c2C)c(C)c1C#N | inconclusive: 23.1 µM [rising, single point] | –
CC1(C)CC(=O)C(C(c2cc([N+](=O)[O-])ccc2Cl)C2C(=O)CC(C)(C)CC2=O)C(=O)C1 | inactive | –
O=C(COC(=O)C12CC3CC(CC(Br)(C3)C1)C2)Nc1ccc2[nH]c(=O)[nH]c2c1 | inactive | –
Cc1ccc(NC(=O)C/C(N)=N/OC(=O)Nc2cccc(C)c2)cc1 | inconclusive: 11.6 µM [rising, partial curve] | –
Cc1nnc(SC(C)C(=O)Nc2ncc(Cl)cc2Cl)n1Cc1ccccc1 (stereo not given) | inactive | –
COc1ccc(CSc2nnc(-c3ccncc3)n2C)cc1F | inactive | –
CCOc1ccc(N(CC)C(=O)CCNC(=O)Cn2ccc3ccccc3c2=O)cc1 | active: 23.1 µM | –
Cc1ccc(C)c(NC(=O)C2CCN(C(=O)c3cccs3)CC2)c1 | inconclusive: 29.1 µM [cytotoxic, partial curve, poor fit] | –
COc1ccccc1-n1c2nc3ccccc3nc2c2c(=O)n(-c3cc(C)cc(C)c3)cnc21 | inconclusive: 6.51 µM [cytotoxic, partial curve, poor fit] | –
COc1ccccc1OCCn1cc(C(=O)O)c2ccccc21 | inconclusive: 29.1 µM [rising, single point] | –
Cc1ccc(S(=O)(=O)N(C)c2ccc(OC(C)C(=O)N3CCCC3)cc2)cc1C (stereo not given) | inconclusive: 8.2 µM [cytotoxic, partial curve] | –
COc1ccc(NC(=O)c2cccs2)cn1 | inconclusive: 29.1 µM [rising, single point] | –
COc1cc(OC)c(C2C=C(c3ccc(C)cc3)Nc3c(C(=O)Nc4ccccc4)cnn32)cc1OC (stereo not given) | inactive | –
C=CCNc1ncnc2c1cnn2-c1ccc(C)cc1C | inactive | –

Structure (SMILES) | Potency | activity change, negative = cytotoxicity
CCCn1c(N)c(C(=O)COC(=O)/C=C/c2ccc(OC(F)F)c(OC)c2)c(=O)[nH]c1=O | inactive | –
COc1ccc(-c2cc(C(=O)N(C)Cc3ccccc3F)c3ccccc3n2)cc1OC | active: 16.4 µM | –
CCCc1ccc(-c2cc(C(=O)NN3CCOCC3)c3ccccc3n2)cc1 | active: 5.17 µM | –
CCOC(=O)C(=O)N(Nc1ccccc1C)c1ccccc1C | inactive | –
O=C(/C=C/c1ccccc1)c1ccc2c3c(cccc13)CC2 | inconclusive: 29.1 µM [cytotoxic, single point] | –
O=C(OCc1ccco1)c1cccnc1 | inactive | –
CCc1ccc(C2N3CC4(C)CN2CC(c2ccccc2)(C3)C4=O)cc1 (stereo not given) | inconclusive: 5.8 µM [cytotoxic, full curve] | –
Cc1ccc(/C=C2/SC(=S)N(c3ccc(S(=O)(=O)Nc4nccs4)cc3)C2=O)cc1 | inactive | –
O=S1(=O)C=C(SCc2ccccc2)Nc2ccccc21 | active: 18.4 µM | –
Cc1ccc(OCC(=O)OCc2cc(=O)n3nc(C4CCCCC4)sc3n2)cc1 | – | inconclusive: 31.3%
O=C(c1[nH]nc2c1CCc1ccccc1-2)N1CCN(Cc2ccc3c(c2)OCO3)CC1 | inconclusive: 25.9 µM [cytotoxic, single point] | –
Cc1ccc(CN2CCN(/N=C/c3ccc(C)s3)CC2)c(C)c1 | active: 16.4 µM | –
Cc1ccc(S(=O)(=O)NC(CC(=O)O)c2ccco2)cc1 (stereo not given) | inactive | –
O=C1CC2(CCCC2)Oc2ccc(Cl)cc21 | inconclusive: 11.6 µM [rising, partial curve] | –
Nc1nnc(-c2ccccc2Cl)s1 | inconclusive: 23.1 µM [rising, single point] | –
CN(C)c1cccc(-c2nnc(SCC(=O)NCc3ccco3)n2C)c1 | inconclusive: 1.64 µM [rising, full curve, poor fit] | –
CC[C@]12c3[nH]c4cc(CCC(=O)N(C)C)ccc4c3CCN1C(=O)[C@@H](CC(=O)NC/C=C(\C)CCC=C(C)C)C[C@@H]2C(=O)N1CCN(C(=O)C2CC2)CC1 | inactive | –
Cc1ccc(/C=N/NC(=O)NN(C)c2ncc(C(F)(F)F)cc2Cl)cc1 | inactive | –
CC(C)(C)c1ccc(/C=N/OCC(=O)NCc2ccc(F)cc2)cc1 | inconclusive: 32.6 µM [cytotoxic, single point] | –
CCNc1c(NC(=O)c2ccccc2OCC)c(=O)oc2ccccc12 | inactive | –
CCOc1ccccc1NS(=O)(=O)c1c(C(=O)OC)sc2cccc(F)c12 | inactive | –
COc1ccc(OC)c(CCNC(=O)c2sc3nc4n(c(=O)c3c2C)CCCC4)c1 | inactive | –
Cc1cccc(N2CCN(C(=O)c3cn(C)c(=O)c4c3c3ccccc3n4C)CC2)c1C | inconclusive: 22.4 µM [cytotoxic, single point] | –
Cc1cccc(NC(=O)c2ccccc2NC(=O)Cc2ccccc2)c1C | inconclusive: 14.6 µM [cytotoxic, partial curve] | –
CCNc1nc(NCC)n2c(SCC(=O)Nc3ccc(NC(C)=O)cc3)nnc2n1 | inconclusive: 32.6 µM [rising, single point] | –

Structure (SMILES) | Potency | activity change, negative = cytotoxicity
Cc1c(Cl)cnc(NC(=O)COC(=O)CNC(=O)c2ccccc2)c1Cl | inconclusive: 29.1 µM [rising, single point] | –
O=C(Nc1ccncc1)C1c2ccccc2Oc2ccccc21 | active: 14.6 µM | –
Cc1ccc(N2C(=O)[C@@H]3CSC(c4ccc(C(F)(F)F)cc4)N3C2=O)cc1 (stereo not given in full) | inactive | –
CCOC(=O)C1=C(CNCc2ccccc2)NC(=O)NC1c1ccc(C)cc1 (stereo not given) | inactive | –
Cc1c(C(=O)N2CCCCC2)oc2ccc(Br)cc12 | inconclusive: 20.6 µM [cytotoxic, single point] | –
O=C(C1COc2ccccc2O1)N1CCc2ccccc2C1 (stereo not given) | inconclusive: 18.4 µM [cytotoxic, single point] | –
COc1cc(/C(C)=N/NC(=S)NC(C)C)cc(OC)c1OC | inconclusive: 18.4 µM [cytotoxic, partial curve] | –
Cc1cc(C)nc(CCNC(=O)CC2C(=O)NCCN2Cc2ccccc2)n1 (stereo not given) | inconclusive: 10.3 µM [rising, partial curve] | –
CC(C)C[C@H]1CNC(=S)N1CC1CCCN1C[C@H](Cc1ccccc1)N1C[C@H](Cc2ccc(O)cc2)N(CC2CCCCCC2)C1=S (stereo not given in full) | inconclusive: 20.6 µM [cytotoxic, single point] | –
COCc1cc(=O)[nH]c(SCCS(=O)(=O)c2ccc(Cl)cc2Cl)n1 | inconclusive: 29.1 µM [cytotoxic, single point] | –
O=c1[nH]nc2n1CCCCC2 | inconclusive: 18.4 µM [rising, single point] | –
COc1ccc(NC(=O)COC(=O)CCC2CCCCC2)cc1 | inactive | –
CSc1ccccc1NC(=O)COc1ccc(Cl)cc1Cl | inactive | –
COc1cccc(C(=O)Oc2cc3c4c(c2)C(C)=CC(C)(C)N4C(=O)C3=O)c1 | inactive | –
O=C(Nc1ccc(Br)cn1)c1ccc(Br)s1 | active: 23.1 µM | –
COc1ccc(S(=O)(=O)N2CCc3ccccc32)cc1C(=O)NCCc1ccccn1 | inactive | –
Cc1ccc(-c2cc(-c3coc4ccccc4c3=O)c3c(n2)-c2cc(Cl)ccc2OC3)cc1 | inactive | –
COCCCn1c(=S)[nH]c2sc3c(c2c1=O)CCCC3 | – | inconclusive: -53.8%
Cn1c(SCc2ccc(Cl)cc2)nnc1-c1ccc(NC(=O)CCc2ccccc2)cc1 | inactive | –
Cc1csc2c(N3CCN(C(=O)NC(C)(C)C)CC3)ncnc12 | inconclusive: 5.17 µM [cytotoxic, full curve] | –
CCCc1cc2c(cc1NC(=O)c1ccccc1C)OCO2 | inactive | –
COc1cc2c(cc1NC(=O)C(C)Oc1ccc(Cl)cc1Cl)oc1ccccc12 (stereo not given) | inactive | –
NS(=O)(=O)c1ccc(CCNC(=O)CN2CCN(c3ccc(F)cc3)CC2)cc1 | inconclusive: 29.1 µM [cytotoxic, single point] | –
O=C(c1ccc(CNS(=O)(=O)c2ccc(F)cc2)cc1)N1CCCCCC1 | inconclusive: 18.4 µM [cytotoxic, single point] | –
COc1ccc(NC(=O)c2oc3ccc4c(c3c2C)C(=O)CC(C)(C)O4)cc1OC | inconclusive: 29.1 µM [cytotoxic, partial curve, poor fit] | –

Exported as tab-separated lines: entries from further up.
Structure (SMILES)	Potency	activity change, negative = cytotoxicity
Cc1cccc(NC(=O)/C=C/c2ccc([N+](=O)[O-])s2)c1	active: 4.61 µM	–
O=C(COC(=O)C12CC3CC(CC(Br)(C3)C1)C2)Nc1ccc2[nH]c(=O)[nH]c2c1	inactive	–
COc1ccc(OC)c(CCNC(=O)c2sc3nc4n(c(=O)c3c2C)CCCC4)c1	inactive	–
Cc1cccc(N2CCN(C(=O)c3cn(C)c(=O)c4c3c3ccccc3n4C)CC2)c1C	inconclusive: 22.4 µM [cytotoxic, single point]	–
Cc1csc2c(N3CCN(C(=O)NC(C)(C)C)CC3)ncnc12	inconclusive: 5.17 µM [cytotoxic, full curve]	–
COc1cc2c(cc1NC(=O)C(C)Oc1ccc(Cl)cc1Cl)oc1ccccc12 (stereo not given)	inactive	–
